According to the supplement of paper PMC12823440, “Inhibitors supercharge kinase turnover through native proteolytic circuits” (Nature, 2025):
Where a name gives a salt, the structure may show the parent alone. The list shows a part of the results. The calls rarely recur for the same compound in another form.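 In K562 cells expressing nanoluciferase-fused kinases, luminescence was recorded at 4 h intervals between 2 and 18 h, normalized as percent of control with DMSO at 100% and a positive control at 0%. A significant (2 sigma) signal drop marks a time point as decreased. The authors' rule for a hit is not shown and takes in more than the number of time points.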

Each compound was assayed against RAF1_S257L (clone: RAF1_mut) (UniProt P04049) (assay: kinase-Nluc reporter destabilization hit call (1 = scored as downregulated) (binary); higher = compound decreases kinase abundance). Conditions: K562; 2-18 h.

kinase-Nluc reporter destabilization hit call, inactive:
CC1(C)CN(C(=O)c2ccc(-c3cccc4nc(NC(=O)C5CC5)nn34)cc2)C1 [Solcitinib] (10 µM) 0, Cc1ccc(NC(=O)N2CCN(c3nc(N)nc4sc(-c5cccnc5)nc34)CC2)cc1 [PI4KIII beta inhibitor 3] (10 µM) 0, COc1ccc(Cl)cc1N(CC(=O)Nc1ccc2c(c1)OCO2)S(=O)(=O)c1ccccc1 (2.5 µM) 0, CN1CCN(c2ccc(-n3cc(-c4ccncc4OCC4CCNCC4)cn3)cc2)CC1 [MELK-8a (hydrochloride)] (10 µM) 0, CC1=CC(=O)C(C(C)C)=C/C1=N/OC(=O)c1ccccc1C [Poloxin] (2.5 µM) 0, O=C(O)/C=C(\CCc1ccc(Cl)cc1)c1ccccc1 (10 µM) 0, CCOC(=O)c1c(C)[nH]c(C=C2C(=O)Nc3ccccc32)c1C (10 µM) 0, O=C(NC[C@H](O)CO)c1ccncc1Nc1ccc(I)cc1F [Pimasertib] (10 µM) 0, O=[N+]([O-])c1ccc(-c2nc(-c3ccc(F)cc3)c(-c3ccncc3)[nH]2)cc1 (10 µM) 0, COc1ccc(CCNCc2ccc(OCc3ccc(Cl)nc3)c(OC)c2)cc1OC [SBE13 (Hydrochloride)] (10 µM) 0
